The campaign covered roughly 390,000 compounds. About 610 (0.16%) were called active. Inconclusive means that the source gave no clear call. Such entries were picked first, then a sample of the others. Calls come from the whole dose curve; as a rule, active = well fitted inhibition curve with a large enough effect; inconclusive = small, poorly fitted or top-dose-only effect, or effect the other way, or another doubt; inactive = no such curve, though single readings can be large or run the other way. Potencies beside an inconclusive call are fits to weak or partial responses and may not hold up.
Test: Nrf2 qHTS screen for inhibitors: counterscreen for cytotoxicity
Conditions: A549 ARE-Fluc cells, CellTiter-Fluor viability, 18-24 h; activity change, negative = cytotoxicity: at 46 µM (top of the series)
In short: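 A549 ARE_Fluc cells in 5% FBS OPTI-MEM were exposed to compounds in concentration-response for 18-24 h at 37 deg C. Viability was read by CellTiter-Fluor fluorescence (Ex 405/Em 525) after 30 min, before the luciferase read.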
% is set by controls: 0 for no effect and ±100 for the full control effect; potency is the fitted concentration of half-maximal effect.

| Structure (SMILES) | Potency | activity change, negative = cytotoxicity |
| --- | --- | --- |
| COc1cc(C(=O)N/N=C/c2sccc2C)cc(OC)c1OC | inconclusive: 0.461 µM [falling, full curve] |  |
| Cc1cc(Br)cc(C)c1OCC(=O)NNC(=O)CCC(=O)NCc1ccccc1 | inconclusive: 16.4 µM [activator, partial curve, poor fit] |  |
| C=CCC[C@@H](Cc1ccc(F)cc1)C(=O)OC[C@@H](Cc1ccccc1)NC(=O)[C@@H](CC=C)CC(=O)N[C@@H](CO)Cc1ccccc1 |  | inactive: 2.95% |
| CN(C)S(=O)(=O)N1CCN(c2ccc([N+](=O)[O-])c(NC3CC3)c2)CC1 | inconclusive: 18.4 µM [falling, partial curve, poor fit] |  |
| COCCCn1c(=N)c(C(=O)NCC2CCCO2)cc2c(=O)n3cccc(C)c3nc21 (stereo not drawn) | inconclusive: 23.1 µM [activator, partial curve] |  |
| O=C(CN1CCC(n2nnc3cc(C(F)(F)F)ccc32)CC1)N1CCc2ccccc21 | inconclusive: 7.31 µM [activator, partial curve, poor fit] |  |
| CCOCCc1nnc(NC(=O)CS(=O)(=O)Cc2ccccc2)s1 | inconclusive: 29.1 µM [falling, single point] |  |
| CCOc1cc(C(=O)OCc2ccc(OC)cc2)ccc1OCC(=O)N1CCOCC1 | inconclusive: 6.51 µM [activator, partial curve, poor fit] |  |
| Cc1ccc(NS(=O)(=O)c2ccc(NC(=O)CN(c3cc([N+](=O)[O-])ccc3C)S(C)(=O)=O)cc2)c(C)c1 | inconclusive: 23.1 µM [falling, single point] |  |
| Cc1cccc2nc(-c3ccccn3)c(Nc3ccc(F)cc3)n12 | inconclusive: 29.1 µM [falling, single point] |  |
| CC(=O)Oc1ccc2cc(-c3nc4c(s3)CCc3ccccc3-4)c(=O)oc2c1 | inconclusive: 9.2 µM [activator, partial curve, poor fit] |  |
| Cc1cc(C)c2nc(N3C(=O)C(O)=C(C(=O)c4ccco4)C3c3ccco3)sc2c1 (stereo not drawn) | inconclusive: 16.4 µM [falling, single point] |  |
| Cc1cc(C)cc(NS(=O)(=O)c2ccc(NC(=S)Nc3ccccc3)cc2)c1 | inconclusive: 0.146 µM [activator, full curve, poor fit] |  |
| CCCn1c(CCC(=O)O)ccc1-c1cccs1 |  | inactive: -6.37% |
| CCCCC(CC)CNC(=O)Cc1ccc(-n2c(=O)[nH]c3ccccc3c2=O)cc1 (stereo not drawn) | inconclusive: 23.1 µM [falling, partial curve, poor fit] |  |
| O=C(Nc1ccc(S(=O)(=O)N2CCOCC2)cc1)c1ccc(CN2CCc3ccccc3C2)cc1 | inconclusive: 9.2 µM [falling, partial curve] |  |
| CC(=O)NC(c1cccs1)c1cc([N+](=O)[O-])c2cccnc2c1O (stereo not drawn) | inconclusive: 32.6 µM [falling, partial curve, poor fit] |  |
| Cc1ccc(S(=O)(=O)Nc2ccc(Cl)cc2C(=O)c2ccccc2)cc1 |  | inactive: -24.3% |
| O=[N+]([O-])c1ccc(-c2nc(C(Cl)Cl)c3ccccc3n2)cc1 | inconclusive: 14.6 µM [falling, partial curve, poor fit] |  |
| Cc1sc2ncnc(N3CCN(S(=O)(=O)c4ccc(C(C)(C)C)cc4)CC3)c2c1C | inconclusive: 23.1 µM [falling, partial curve, poor fit] |  |
| NC(=O)c1ccc(NC(=O)CSc2nc3ccccc3c(=O)n2CCCN2CCOCC2)cc1 |  | inactive: -7.77% |

| Structure (SMILES) | Potency | activity change, negative = cytotoxicity |
| --- | --- | --- |
| Nc1ncn([C@@H]2O[C@H](CO)[C@@H](O)[C@H]2O)c(=O)n1 | inconclusive: 4.11 µM [falling, full curve] |  |
| CC[n+]1c(/C=C2\Sc3ccccc3N2C)ccc2cccc(C)c21 | inconclusive: 14.6 µM [falling, partial curve] |  |
| CCc1ccc(/C=C\C(=O)N2CCCC2)cc1 |  | inactive: 5.56% |
| CCOc1ccc(CC(=NCCc2ccccc2)C2=C(O)CC(C)(C)CC2=O)cc1OCC | inconclusive: 29.1 µM [falling, partial curve, poor fit] |  |
| O=C(COc1ccc(S(=O)(=O)NCc2ccccc2)cc1)NCc1cccnc1 |  | inactive: 5.56% |
| CSc1ccc(CCNC(=O)c2cc(C)nc3c2c(C)nn3-c2cccc(F)c2)cc1 | inconclusive: 29.1 µM [falling, single point] |  |
| O=C(COC(=O)/C=C/c1ccccc1)Nc1ccc(Cl)cn1 |  | inactive: -3.25% |
| Cc1c(C(=O)NCC2COc3ccccc3O2)oc2ccc(S(=O)(=O)N3CCOCC3)cc12 (stereo not drawn) |  | inactive: -16.1% |
| CCn1c(=O)c(CCC(=O)N2CCN(c3ccccn3)CC2)c(C)c2c(C)nn(-c3cccc(C)c3)c21 |  | inactive: 0.682% |
| CSC1=NCCN1S(=O)(=O)c1ccc2ccccc2c1 | inconclusive: 1.3 µM [activator, partial curve, poor fit] |  |
| CC1CCN(Cc2nc3c(c(=O)n(C)c(=O)n3C)n2CCc2ccccc2)CC1 | inconclusive: 20.6 µM [activator, partial curve, poor fit] |  |
| Cc1ccc(CN2CCC(Oc3cccc(C(=O)N(C)CCN(C)C)c3)CC2)cc1C | inconclusive: 16.4 µM [falling, partial curve] |  |
| COc1ccc(N2CCN(C(=O)Cc3ncc(C(F)(F)F)cc3Cl)CC2)cc1 |  | inactive: -3.81% |
| CCN1CCN(C2=CC3=CC(=C(C#N)C#N)CCC3CC2)CC1 (stereo not drawn) | inconclusive: 25.9 µM [falling, partial curve, poor fit] |  |
| CC(=O)c1ccc(NC(=O)c2ccc(-n3cnnn3)cc2)cc1 |  | inactive: 0.33% |
| O=C(NNc1c2ccccc2nc2ccccc12)c1cc2ccccc2cc1O | inconclusive: 25.9 µM [falling, single point] |  |
| O=S(=O)(NC1CC(NS(=O)(=O)OCC(Cl)(Cl)Cl)C2CCCCC12)OCC(Cl)(Cl)Cl (stereo not drawn) | inconclusive: 32.6 µM [falling, single point] |  |
| CCOc1ccc(NC(=O)c2nc(S(=O)(=O)Cc3ccccc3F)ncc2Cl)cc1 | inconclusive: 18.4 µM [falling, partial curve] |  |
| N#C/C(=C\c1ccc(N2CCOCC2)o1)c1nc2ccccc2[nH]1 | inconclusive: 14.6 µM [falling, partial curve] |  |
| CCN(CC)c1ccc(S(=O)(=O)N2CCOCC2)cc1NC(=O)CNCc1cccc(Cl)c1 | inconclusive: 32.6 µM [falling, partial curve, poor fit] |  |
| CCN(CC)C(=O)c1ccc(C(=O)c2c(C)cc(C)cc2C)cc1 | inconclusive: 32.6 µM [falling, partial curve, poor fit] |  |

Five successive entries out of the list so far, for reference:

| Structure (SMILES) | Potency | activity change, negative = cytotoxicity |
| --- | --- | --- |
| CCOc1ccc(CC(=NCCc2ccccc2)C2=C(O)CC(C)(C)CC2=O)cc1OCC | inconclusive: 29.1 µM [falling, partial curve, poor fit] |  |
| O=C(COc1ccc(S(=O)(=O)NCc2ccccc2)cc1)NCc1cccnc1 |  | inactive: 5.56% |
| CSc1ccc(CCNC(=O)c2cc(C)nc3c2c(C)nn3-c2cccc(F)c2)cc1 | inconclusive: 29.1 µM [falling, single point] |  |
| O=C(COC(=O)/C=C/c1ccccc1)Nc1ccc(Cl)cn1 |  | inactive: -3.25% |
| Cc1c(C(=O)NCC2COc3ccccc3O2)oc2ccc(S(=O)(=O)N3CCOCC3)cc12 (stereo not drawn) |  | inactive: -16.1% |

(listing goes on)

| Structure (SMILES) | Potency | activity change, negative = cytotoxicity |
| --- | --- | --- |
| NNC(=O)CSc1nnnn1-c1ccccc1 | inconclusive: 16.4 µM [activator, partial curve, poor fit] |  |
| Cc1nc2ccccc2n1Cc1ccc(Cl)cc1 |  | inactive: 8.66% |
| O=c1[nH]c(C2CCN(S(=O)(=O)c3ccccc3C(F)(F)F)CC2)nc2c1nnn2Cc1cccc(F)c1 | inconclusive: 29.1 µM [falling, single point] |  |
| COc1ccc2nc(NC(=O)c3ccc(NC(=O)C4CCCO4)cc3)sc2c1 (stereo not drawn) |  | inactive: -5.44% |
| CCc1ccccc1S(=O)(=O)Cc1ccc(C(=O)NCCc2ccc(Cl)cc2)o1 | inconclusive: 29.1 µM [falling, single point] |  |
| Cc1ccc(/C=C/C(=O)N2CCN(c3ncccn3)CC2)o1 |  | inactive: 6.03% |
| Cc1ccc(C)c(NC(=O)c2nc(S(=O)(=O)Cc3ccc(F)cc3)ncc2Cl)c1 | inconclusive: 20.6 µM [falling, single point] |  |
| CCOC(=O)c1sc(-c2ccccc2)nc1C | inconclusive: 29.1 µM [activator, partial curve, poor fit] |  |
| CCC(C)Sc1ccc(-c2nc3cc(C)ccn3c2NC2CCCCC2)cc1 (stereo not drawn) | inconclusive: 20.6 µM [falling, single point] |  |
| Nc1ccc(S(=O)(=O)Nc2nccs2)cc1N=Nc1ccccc1[N+](=O)[O-] | inconclusive: 32.6 µM [falling, partial curve, poor fit] |  |
| CN(C)CCOc1ccc(-c2c(-c3ccccc3)sc3ccccc23)cc1 | inconclusive: 29.1 µM [falling, single point] |  |
| Cc1ccc(NC(=O)c2cc3c(s2)CCCC3)cc1S(=O)(=O)Nc1ccccc1Cl |  | inactive: -19.6% |
| COc1ccc(-c2ccc(C)cc2)cc1[C@H]1[C@H]2C=CC[C@@H](C)[C@@H]2C(=O)N1Cc1ccccc1 |  | inactive: -0.759% |
| Cc1ccc(C(=O)OCC(=O)N2CCc3ccccc32)cc1 | inconclusive: 32.6 µM [activator, partial curve, poor fit] |  |
| CC(C)C(=O)Nc1cccc(C(=O)OCC(=O)c2ccc(Cl)cc2Cl)c1 | inconclusive: 14.6 µM [falling, partial curve] |  |
| Cc1ccc(C)c(NC(=O)c2nc(Cl)ccc2Cl)c1 | inconclusive: 32.6 µM [activator, partial curve, poor fit] |  |
| NC(=S)N=Nc1c(O)n(CCCl)c2ccc(Cl)cc12 | inconclusive: 25.9 µM [falling, partial curve, poor fit] |  |
| COc1ccc(CCn2c(SCC(=O)Nc3cc(C)on3)nc3ccsc3c2=O)cc1OC | inconclusive: 23.1 µM [falling, single point] |  |
| CCOC(=O)c1c(-c2ccccc2)oc2ccc(OCC(O)CNCCN(C)C)cc12 (stereo not drawn) | inconclusive: 18.4 µM [falling, single point] |  |
| COc1ccc(OCC(=O)NCc2ccc3c(c2)CCN3C(=O)c2cccc(C)c2)cc1 |  | inactive: -14.1% |
| CCn1c(SCC(=O)Nc2ccccc2N2CCCCC2)nc2c1c(=O)n(C)c(=O)n2C | inconclusive: 29.1 µM [falling, single point] |  |
